Test results published in PMC11059408, “Atypical heat shock transcription factor HSF5 is critical for male meiotic prophase under non-stress conditions” (Nature Communications, 2023).
Results are given in words; binding and its absence hold for the method and conditions named.

What was measured:
[1] = target: HSF5 fragment (aa 1-209) containing DNA binding domain (mouse) (UniProt Q5ND04); assay: SEC-MALS; after heat treatment at 42 °C for 30 min; 100 μL of MBP-full length HSF5 (12.6 μM) or HSF5-DBD (26.6 μM) injected; PROTEIN KW-803 column; 25 mM HEPES/KOH pH 7.2, 150 mM KCl; both purified
[2] = target: HSF5 fragment (aa 1-209) containing DNA binding domain (mouse) (UniProt Q5ND04); assay: SEC-MALS; room temperature (25 °C); PROTEIN KW-803 column; 25 mM HEPES/KOH pH 7.2, 150 mM KCl; about 100 μL injected at 1.0 mL/min; both purified

B1: HSF5 fragment (aa 1-209) containing DNA binding domain (domain or fragment, UniProt Q5ND04 1-209)
chain: MEEALLSTPINPNNFPAKLWRLVNSPRYRSIRWDGRGEGLLIDQPLFEAELLSPPGPGAGGAGGAGSSGGGGGSGVGAAGAEPELFKTTNFTSFIRQLNLYGFRKVVLGGPGAAGPGPGPGAGGPAGDGPLHHFHSPHFRRDQPQLLVHLKRLTSANKAKLAAGLEVPCRPPNRFQRLLITSASASASASTSPLQHQDPPPQPAGPRPE
Q: How did the binding [1] turn out when B1 was run?
A: Its binding is “no binding (tested: 26.6 μM injected)”.

Q: What about the binding [2] of the same binder?
A: The binding was “no binding”.
